From ChEMBL document CHEMBL3988442, “University of Dundee, Small-Polar-MMV Screening Library” (2021).

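Whole-cell assay for inhibitors of Mycobacterium tuberculosis growth, labelled Cornell in the record; the read-out is not stated. The concentration is filed as 10 mM, unlikely as a test dose, so the dose is not known. Higher means stronger inhibition (inferred from two other growth screens of the library). About 53,000 compounds were tested under these conditions; 1.7% (about 900) showed 50% or more at least once.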

Each number is a percent effect as filed.
The controls that fix the scale are not given in the record; negative values are as filed.
This is an unselected part of the compounds tested.

For CCn1cc(S(=O)(=O)NC2(CN3CCOCC3)CCCCC2)c(C)n1 the result was -0.5967%. With COc1ncc(-c2c(C#N)c(N)nc3c2CCc2[nH]ccc2-3)cn1 the screen gave 19.25%. Result for O=C(O)C(F)(F)F.[H][C@@]12CN(Cc3cccs3)C[C@@]1([H])N(CC1CC1)C(=O)CO2 was 12.37%. COCc1ccc(CNC(=O)C2=NN(c3ccccc3)C(=O)CN2)cc1 read -8.016%.

NC(=O)CC1CCCCN1C(=O)c1ccc2cc[nH]c2c1 (configuration not stated) read 3.688%. For CCCN(Cc1ccc(C(=O)NCC2COCCO2)c(=O)[nH]1)C1CC1 (configuration not stated) the result was -47.39%. For Clc1ccc(CNc2cnn(CCN3CCOCC3)c2)cc1Cl the result was -19.06%. Cc1occc1C(=O)N1CCc2c(COCC3CC3)cncc2C1 read -10.25%.

Result for [H][C@@]12CS(=O)(=O)C[C@]1([H])N(Cc1ccc(OC)c(C)c1)CCN2CC1CC1 was -5.352%. N#Cc1cccc(CN2CCn3cc(CNC(=O)C4CCC4)nc3C2)c1 read 25.54%. O=C(c1cc2cccc(F)c2[nH]1)N1C[C@@H](O)[C@H](N2CCCC2)C1 read 36.56%. O=C(OCc1cccs1)c1cccc(C(=O)N2CCCC2)n1 gave -6.459%.

For [H][C@@]12CCN(C3CCC3)[C@]1([H])CC[C@@H](c1nnc(C)o1)O2 the result was -14.61%. CCc1[nH]c2c(CNc3nccc(N)n3)cc(C)cc2c1C gave -11.53%. Result for COc1ccc(F)c(F)c1CN1CCN(CC(C)C)C(=O)C1C (configuration not stated) was 0.7789%. For O=C(CS(=O)(=O)Cc1cc(Cl)c2c(c1)OCO2)N1CCCCCC1 the result was -3.371%.

For Cn1ncc2cnn(CC(O)COCc3ccccc3Cl)c2c1=O (configuration not stated) the result was -0.7213%. Cc1ccc(CN2CCc3ncnc(C4CCOC4)c3CC2)s1.O=C(O)C(F)(F)F (configuration not stated) gave 15.67%. Result for CNc1nc(C2CCN(C(=O)CC3CCCC3)C2)nc2c1CN(C)CC2 (configuration not stated) was -5.491%. For CCC(NC(=O)CNCC(F)(F)F)c1cc(F)ccc1F (configuration not stated) the result was 25.95%.

For O=C(CSc1ccc2c(c1)OCCO2)NS(=O)(=O)c1cc(F)ccc1F the result was 4.352%. Result for Cc1cc(CN(C)C(=O)C2CC(=O)N(Cc3cccnc3)C2)on1 (configuration not stated) was 14.11%. COc1cc(C2CC(=O)Nc3c2c(=O)[nH]n3C2CCCCC2)ccc1O (configuration not stated) gave 27.51%. For CN(CCO)Cc1cc(=O)n2cc(Br)ccc2n1 the result was -15.72%.

With O=C(Cc1ccc2c(c1)OCCO2)NCCc1nnc2n1CCC2 the screen gave -16.67%. CCNC(=O)C1(Cc2ccc(-c3ccccc3)cc2)CCCNC1 (configuration not stated) gave 1.389%. c1cncc(CN(Cc2ccc(-n3ccnc3)cc2)CC2CCCO2)c1 (configuration not stated) read 25.24%. CS(=O)(=O)c1ccc(CNC(=O)N2CCC(c3ccccc3)CC2)cc1 read 4.579%.

For O=C1N(c2cccc(Cl)c2)Cc2nc(=O)[nH]n21 the result was -37.18%. CC(=O)N1CCc2c(nc(N(C)C)nc2NCc2cccs2)C1 read 19.99%. Result for CN(Cc1nc2ccccc2n1C)CC1CCCN1c1cccnn1 (configuration not stated) was -0.934%. Result for CC(=O)NCC(=O)N1CCC2(CC1)NC(=O)CC2c1cnn(C)c1 (configuration not stated) was 37.56%.

CCc1cc(CN(C)C(=O)CN2CC3(CCNCC3)OC2=O)on1 read 1.19%.

The first 4 entries again:

Compound	effect
CCn1cc(S(=O)(=O)NC2(CN3CCOCC3)CCCCC2)c(C)n1	-0.5967
COc1ncc(-c2c(C#N)c(N)nc3c2CCc2[nH]ccc2-3)cn1	19.25
O=C(O)C(F)(F)F.[H][C@@]12CN(Cc3cccs3)C[C@@]1([H])N(CC1CC1)C(=O)CO2	12.37
COCc1ccc(CNC(=O)C2=NN(c3ccccc3)C(=O)CN2)cc1	-8.016